PubChem BioAssay AID1259254, NCATS, 2017
Screen: 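Finding genes that stop cells copying their DNA twice in one cycle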 (primary screen). Cells: human HCT116 colorectal cancer cells. Reagent: single siRNA against human genes. Time to read-out: 3 days. Read-out: 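Imaged Hoechst DNA stain sorts each cell into a cycle phase by DNA amount; per plate, G2 fraction set to 0% for non-targeting and 100% for GMNN siRNA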. Scale: G2 robust z-score and G2 cells, % of GMNN control: higher = more G2 cells, more excess DNA replication; raw share of cells in G2: higher = larger share of cells with G2 DNA content. Hit rule: 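Active siRNAs have a G2 robust z of 5 or more median absolute deviations over the median, which in these data means about 38% or higher of GMNN control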.
In all, the deposit lists about 59,000 reagents; this is a part drawn at random. About 1,550 of all reagents (2.6%) were called active. 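G2 share is only a proxy for re-replication; each gene was hit by three separate siRNAs, and active genes were retested.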 Raw values vary from plate to plate and are shown uncorrected. A number with no mark means an inactive call. The numbers tell different reagents against one gene apart. Not stated in the record: the amount of reagent.

G2 robust z-score | G2 cells, % of GMNN control | raw share of cells in G2 (%) | Gene | reagent
-0.793 | -2.61 | 3.06 | ZNF519P3 (zinc finger protein 519 pseudogene 3) | 1
1.01 | 10.1 | 6.63 | ZNF519P3 (zinc finger protein 519 pseudogene 3) | 2
-0.584 | -1.14 | 2.76 | ZNF519P3 (zinc finger protein 519 pseudogene 3) | 3
-0.176 | 1.73 | 5.52 | GZMM (granzyme M) | 1
-0.686 | -1.86 | 3.22 | GZMM (granzyme M) | 2
-0.631 | -1.47 | 5.05 | GZMM (granzyme M) | 3
1.39 | 12.8 | 9.82 | CLK2 (CDC like kinase 2) | 1
-1.07 | -4.54 | 3.88 | CLK2 (CDC like kinase 2) | 2
-0.184 | 1.68 | 4.62 | CLK2 (CDC like kinase 2) | 3
2.65 | 21.6 | 13.1 | F7 (coagulation factor VII) | 1
-0.495 | -0.514 | 4.73 | F7 (coagulation factor VII) | 2
0.646 | 7.51 | 6.71 | F7 (coagulation factor VII) | 3
12.8 (active) | 93.3 | 40.5 | BCAR1 (BCAR1 scaffold protein, Cas family member) | 1
4.31 | 33.3 | 14.6 | BCAR1 (BCAR1 scaffold protein, Cas family member) | 2
2.75 | 22.3 | 13.8 | BCAR1 (BCAR1 scaffold protein, Cas family member) | 3
4.71 | 36.1 | 20.9 | TYR (tyrosinase) | 1
0.129 | 3.88 | 5.71 | TYR (tyrosinase) | 2
1.84 | 15.9 | 9.71 | TYR (tyrosinase) | 3
3.24 | 25.8 | 13.6 | TSKS (testis specific serine kinase substrate) | 1
1.72 | 15.1 | 10.7 | TSKS (testis specific serine kinase substrate) | 2
-0.274 | 1.04 | 4.02 | TSKS (testis specific serine kinase substrate) | 3
1.1 | 10.7 | 8.57 | TMEM9B (TMEM9 domain family member B) | 1
0.0729 | 3.48 | 6.12 | TMEM9B (TMEM9 domain family member B) | 2
0.551 | 6.85 | 5.2 | TMEM9B (TMEM9 domain family member B) | 3
-0.645 | -1.57 | 3.59 | HOPX (HOP homeobox) | 1
-0.413 | 0.0623 | 3.48 | HOPX (HOP homeobox) | 2
-0.775 | -2.49 | 1.65 | HOPX (HOP homeobox) | 3

Records listed so far with an active call (1):
G2 robust z-score | G2 cells, % of GMNN control | raw share of cells in G2 (%) | Gene | reagent
12.8 (active) | 93.3 | 40.5 | BCAR1 (BCAR1 scaffold protein, Cas family member) | 1

More results follow.
G2 robust z-score | G2 cells, % of GMNN control | raw share of cells in G2 (%) | Gene | reagent
0.0825 | 3.55 | 6.97 | AMBN (ameloblastin) | 1
-1.04 | -4.37 | 2.49 | AMBN (ameloblastin) | 2
0.977 | 9.84 | 7.38 | AMBN (ameloblastin) | 3
-0.923 | -3.53 | 2.65 | ARMH4 (armadillo like helical domain containing 4) | 1
0.735 | 8.14 | 5.43 | ARMH4 (armadillo like helical domain containing 4) | 2
-0.845 | -2.98 | 2.03 | ARMH4 (armadillo like helical domain containing 4) | 3
1.41 | 12.9 | 8.49 | ZNF473CR (ZNF473 cis regulating lncRNA) | 1
-0.038 | 2.7 | 4.59 | ZNF473CR (ZNF473 cis regulating lncRNA) | 2
-1.11 | -4.82 | 2.79 | ZNF473CR (ZNF473 cis regulating lncRNA) | 3
2.85 | 23 | 15.2 | XYLT2 (xylosyltransferase 2) | 1
6.91 (active) | 51.6 | 23 | XYLT2 (xylosyltransferase 2) | 2
-0.753 | -2.33 | 3.52 | XYLT2 (xylosyltransferase 2) | 3
-0.442 | -0.145 | 5.24 | GABRR3 (gamma-aminobutyric acid type A receptor subunit rho3) | 1
1.67 | 14.7 | 9.76 | GABRR3 (gamma-aminobutyric acid type A receptor subunit rho3) | 2
1.11 | 10.7 | 8.57 | GABRR3 (gamma-aminobutyric acid type A receptor subunit rho3) | 3
-0.415 | 0.0452 | 4 | BEX5 (brain expressed X-linked 5) | 1
0.358 | 5.48 | 5.66 | BEX5 (brain expressed X-linked 5) | 2
-0.449 | -0.191 | 4.11 | BEX5 (brain expressed X-linked 5) | 3
-0.15 | 1.91 | 5.93 | GLUD1 (glutamate dehydrogenase 1) | 1
-0.305 | 0.823 | 5.58 | GLUD1 (glutamate dehydrogenase 1) | 2
-0.0602 | 2.54 | 4.56 | GLUD1 (glutamate dehydrogenase 1) | 3
-0.806 | -2.7 | 3.92 | PLAU (plasminogen activator, urokinase) | 1
-0.773 | -2.47 | 3.56 | PLAU (plasminogen activator, urokinase) | 2
1.07 | 10.5 | 6.65 | PLAU (plasminogen activator, urokinase) | 3
-0.198 | 1.57 | 4.08 | POU4F3 (POU class 4 homeobox 3) | 1
-0.745 | -2.28 | 3.78 | POU4F3 (POU class 4 homeobox 3) | 2
-0.474 | -0.369 | 2.97 | POU4F3 (POU class 4 homeobox 3) | 3
-0.667 | -1.72 | 3.67 | BEGAIN (brain enriched guanylate kinase associated) | 1
-0.605 | -1.29 | 3.84 | BEGAIN (brain enriched guanylate kinase associated) | 2
0.183 | 4.26 | 4.38 | BEGAIN (brain enriched guanylate kinase associated) | 3
0.458 | 6.19 | 8.76 | GLRX2 (glutaredoxin 2) | 1
7.54 (active) | 56 | 24.9 | GLRX2 (glutaredoxin 2) | 2
-0.805 | -2.69 | 2.77 | GLRX2 (glutaredoxin 2) | 3
4.17 | 32.3 | 19.9 | CCPG1 (cell cycle progression 1) | 1
3.09 | 24.7 | 14.2 | CCPG1 (cell cycle progression 1) | 2
-0.997 | -4.05 | 1.93 | CCPG1 (cell cycle progression 1) | 3
1.3 | 12.1 | 8.7 | AKR1C8 (aldo-keto reductase family 1 member C8) | 1
0.14 | 3.95 | 7.61 | AKR1C8 (aldo-keto reductase family 1 member C8) | 2
-0.34 | 0.576 | 5.18 | AKR1C8 (aldo-keto reductase family 1 member C8) | 3
-0.133 | 2.03 | 3.23 | MFSD11 (major facilitator superfamily domain containing 11) | 1
0.463 | 6.23 | 7.29 | MFSD11 (major facilitator superfamily domain containing 11) | 2
-0.895 | -3.33 | 3.12 | MFSD11 (major facilitator superfamily domain containing 11) | 3
